No constants are given. Whether binding was seen depends on the method and setting. Some entries that bind do so weakly or less than the wild type.
Experiments:
[1] = target: BMP-7 growth factor (GF) dimer (UniProt P18075); test: SPR; BIAcore 2000; BMP-7 GF covalently coupled to a CM5 chip (500 RU), PD variants flown over in HBS-EP pH 7.4 with 1 M urea; 1:1 model with mass transfer; apparent KD = kd/ka; both purified
[2] = target: BMP-7 prodomain, full-length PD (residues 30-292), E. coli (UniProt P18075); test: SPR; PD/PD interaction: 500-800 RU of full-length PD (30-292) or truncated variants (48-292, 55-292) immobilised, 0-320 nM PD variants injected in HBS-EP with 1 M urea; apparent KD; both purified
[3] = target: BMP-7 prodomain-growth factor complex (UniProt P18075); test: negative-stain TEM, single particle classification; BMP-7 complex dialysed together with the fibrillin-1 N-terminal fragment at a 1:4 molar ratio, total protein 10-20 μg/ml, negatively stained; both purified
[4] = target: BMP-7 PD (30-292) P65A/H66A/R67A/P68A (UniProt P18075); test: ELISA; sandwich ELISA of reconstitution in solution: PD variants dialysed with the GF in TBS with 1 M urea overnight, captured by coated monoclonal anti-His6 antibody (C-terminal His6 of the PD), GF detected with an anti-GF antibody; both purified
[5] = target: BMP-7 PD (30-292) H66A/R67A (UniProt P18075); test: as above
BMP-7 PD (30-292) P65A = BMP-7 PD (30-292) P65A (UniProt P18075); test: as above
[6] = target: BMP-7 PD truncation variant 74-292 (UniProt P18075); test: ELISA; BMP-7 PD variants coated at 0.1 μM on MaxiSorp 96-well plates, BMP-7 GF incubated in solution, bound GF detected with a polyclonal anti-BMP-7 GF antibody; both purified
[7] = target: BMP-7 PD truncation variant 55-292 (UniProt P18075); test: SPR; PD/PD interaction: 500-800 RU of full-length PD (30-292) or truncated variants (48-292, 55-292) immobilised, 0-320 nM PD variants injected in HBS-EP with 1 M urea; apparent KD; both purified
[8] = target: BMP-7 growth factor (GF) dimer (UniProt P18075); test: velocity sedimentation in sucrose gradients; 10 μg BMP-7 complex dialysed against TBS with 4 M urea, 5-20% sucrose gradient, 28 fractions, Western blots for PD and GF; both purified
[9] = target: BMP-7 prodomain of the HEK293 EBNA cell-expressed BMP-7 complex (UniProt P18075); test: as above
[10] = target: BMP-7 PD truncation variant 48-292 (UniProt P18075); test: SPR; PD/PD interaction: 500-800 RU of full-length PD (30-292) or truncated variants (48-292, 55-292) immobilised, 0-320 nM PD variants injected in HBS-EP with 1 M urea; apparent KD; both purified

The chains behind the UniProt entries cited, without tags or fusion partners. Where a name states a change or a piece, a line headed by the entry shows the natural chain unless it says otherwise. A line that says so, or that is headed by a name, gives the form on record, which may keep a tag or linker.
UniProt P18075: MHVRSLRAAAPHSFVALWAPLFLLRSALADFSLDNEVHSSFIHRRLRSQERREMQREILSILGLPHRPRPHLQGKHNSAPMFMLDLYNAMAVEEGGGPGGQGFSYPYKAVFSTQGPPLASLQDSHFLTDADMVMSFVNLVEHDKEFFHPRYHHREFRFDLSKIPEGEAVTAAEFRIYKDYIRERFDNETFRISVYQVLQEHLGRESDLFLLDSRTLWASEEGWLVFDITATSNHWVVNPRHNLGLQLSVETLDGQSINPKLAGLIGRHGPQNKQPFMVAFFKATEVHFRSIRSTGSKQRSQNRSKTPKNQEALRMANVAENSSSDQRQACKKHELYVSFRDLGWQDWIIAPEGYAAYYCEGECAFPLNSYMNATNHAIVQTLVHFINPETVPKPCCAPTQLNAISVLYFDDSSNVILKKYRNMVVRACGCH
BMP-7 PD (30-292) P65A/H66A/R67A/P68A (P18075, form named): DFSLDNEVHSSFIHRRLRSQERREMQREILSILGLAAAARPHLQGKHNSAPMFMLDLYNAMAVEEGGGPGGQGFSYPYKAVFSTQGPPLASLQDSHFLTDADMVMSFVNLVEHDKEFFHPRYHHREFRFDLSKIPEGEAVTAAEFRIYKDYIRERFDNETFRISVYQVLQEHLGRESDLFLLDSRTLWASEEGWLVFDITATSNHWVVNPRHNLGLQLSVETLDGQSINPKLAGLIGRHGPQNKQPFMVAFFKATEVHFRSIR
BMP-7 PD (30-292) H66A/R67A (P18075, form named): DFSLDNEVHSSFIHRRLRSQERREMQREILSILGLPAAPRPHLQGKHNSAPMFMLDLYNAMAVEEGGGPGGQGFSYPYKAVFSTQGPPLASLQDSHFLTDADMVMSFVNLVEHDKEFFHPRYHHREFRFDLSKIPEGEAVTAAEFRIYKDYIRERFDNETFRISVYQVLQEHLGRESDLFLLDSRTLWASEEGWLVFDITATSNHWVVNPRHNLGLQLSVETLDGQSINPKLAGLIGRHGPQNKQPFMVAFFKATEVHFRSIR
BMP-7 PD (30-292) P65A (P18075, form named): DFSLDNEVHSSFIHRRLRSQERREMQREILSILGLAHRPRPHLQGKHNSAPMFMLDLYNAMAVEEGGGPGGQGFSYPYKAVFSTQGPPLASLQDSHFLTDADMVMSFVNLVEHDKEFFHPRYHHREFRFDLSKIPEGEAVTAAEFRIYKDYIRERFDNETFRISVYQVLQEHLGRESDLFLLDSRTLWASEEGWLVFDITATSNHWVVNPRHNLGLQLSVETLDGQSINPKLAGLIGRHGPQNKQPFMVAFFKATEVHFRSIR

BMP-7 PD truncation variant 116-292 (from UniProt P18075 116-292) (domain or fragment)
binding [1]: no binding
binding [2]: no binding (tested: 0–320 nM)

fibrillin-1 unique N-terminal domain (FUN) with the first EGF-like domain (Ser19-His118) fused with cbEGF19-22 (Asp1363-Val1527) (from UniProt P35555 19-118; P35555 1363-1527) (domain or fragment)
binding [3]: binds

BMP-7 PD variant 185-292 (from UniProt P18075 185-292) (domain or fragment)
binding [1]: no binding
binding [2]: no binding (tested: 0–320 nM)

BMP-7 growth factor (GF) dimer (from UniProt P18075 293-431) (ligand)
binding [4]: no binding
binding [5]: no binding
binding (BMP-7 PD (30-292) P65A): no binding
binding [6]: no binding

BMP-7 PD truncation variant 55-292 (from UniProt P18075 55-292) (domain or fragment)
binding [7]: no binding (tested: 0–320 nM)

BMP-7 PD truncation variant 74-292 (from UniProt P18075 74-292) (domain or fragment)
binding [1]: no binding
binding [2]: no binding (tested: 0–320 nM)

BMP-7 PD truncation variant 67-292 (from UniProt P18075 67-292) (domain or fragment)
binding [1]: no binding

BMP-7 prodomain of the HEK293 EBNA cell-expressed BMP-7 complex (from UniProt P18075 30-292) (domain or fragment)
binding [8]: no binding (condition: in 4 M urea)
binding [9]: no binding (condition: in 4 M urea)

BMP-7 PD truncation variant 48-292 (from UniProt P18075 48-292) (domain or fragment)
binding [10]: no binding (tested: 0–320 nM)

BMP-7 PD truncation variant 69-292 (from UniProt P18075 69-292) (domain or fragment)
binding [1]: no binding

Source: article PMC4933460
